PubChem BioAssay AID493246 – Drosophila RNAi Screening Center – 2011
The screen tested about 21,000 reagents; this is an unselected part of those that have a named target and a result. Of all reagents, 429 (2%) got an active call. 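Values are raw and not normalised between plates; calls rest on per-plate z-scores that were not deposited.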 Reagents against one gene are numbered here. Names joined by + are all predicted targets of the reagent. Not given: the amount of reagent, the time to read-out.

Test: 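Genes fly cells need to grow and stay alive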 (primary screen)
Cell system: Drosophila Kc and S2R+ cells
Reagents: long dsRNA against Drosophila genes
Measured: 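Cell number per well after knock-down, printed as raw plate values; calls were based on per-plate z-scores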
Direction: Kc cell number and S2R+ cell number: higher = more cells remaining
Call rule: 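Active when the per-plate z-score of cell number is 3 or more in the direction of fewer cells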

no.	Target gene	reagent	Kc cell number, rep 1	Kc cell number, rep 2	S2R+ cell number, rep 1	S2R+ cell number, rep 2	call
1	Tmem131 (Transmembrane protein 131)	1	1.29e6	1.36e6	1.18e6	1.16e6	inactive
2	TAF1C-like	1	1.44e6	1.51e6	1.26e6	1.32e6	inactive
3	Pepck2 (Phosphoenolpyruvate carboxykinase 2)	1	1.90e6	1.95e6	1.25e6	1.40e6	inactive
4	CG14111	1	1.36e6	1.33e6	1.41e6	1.48e6	inactive
5	Mkp + CG34140	1	1.41e6	1.40e6	1.23e6	1.27e6	inactive
6	Mekk1	1	1.67e6	1.70e6	1.23e6	1.32e6	inactive
7	Mekk1	2	1.16e6	1.15e6	1.11e6	1.19e6	inactive
8	Boot (Bootlegger)	1	1.58e6	1.60e6	1.36e6	1.37e6	inactive
9	CarT (Carcinine transporter)	1	9.63e5	1.01e6	8.52e5	6.78e5	inactive
10	CG14570	1	1.38e6	1.42e6	1.30e6	1.47e6	inactive
11	CG13295	1	1.64e6	1.68e6	1.20e6	1.30e6	inactive
12	PPO3 (Prophenoloxidase 3)	1	1.32e6	1.39e6	1.11e6	1.20e6	inactive
13	Sumo (Small ubiquitin like modifier)	1	6.81e5	9.31e5	3.40e5	4.20e5	active
14	CG34033	1	1.47e6	1.56e6	9.64e5	1.12e6	inactive
15	Glut3 (Glucose transporter type 3)	1	1.48e6	1.59e6	1.20e6	1.25e6	inactive
16	CG33251 (retired record) + CG9915	1	1.58e6	1.64e6	1.20e6	1.25e6	inactive
17	CG14445	1	1.54e6	1.53e6	1.17e6	1.23e6	inactive
18	Eig71Ej	1	1.35e6	1.41e6	1.21e6	1.32e6	inactive
19	tHMG2 (testis-enriched HMG-box-containing protein 2)	1	1.31e6	1.23e6	9.61e5	1.19e6	inactive
20	Efr (ER GDP-fucose transporter)	1	1.54e6	1.57e6	1.13e6	1.22e6	inactive
21	CG10621	1	1.51e6	1.65e6	1.20e6	2.79e5	inactive
22	Orc4 (Origin recognition complex subunit 4)	1	1.25e6	1.35e6	8.90e5	8.74e5	inactive
23	CG32507	1	1.63e6	1.79e6	1.03e6	1.15e6	inactive
24	CG17104	1	1.16e6	1.22e6	9.32e5	8.06e5	inactive

Called active, of those listed so far:
Target gene	reagent	Kc cell number, rep 1	Kc cell number, rep 2	S2R+ cell number, rep 1	S2R+ cell number, rep 2	call
Sumo (Small ubiquitin like modifier)	1	6.81e5	9.31e5	3.40e5	4.20e5	active
